Reference: PubChem BioAssay AID1487 (National Center for Advancing Translational Sciences (NCATS), 2009)
Some of the results follow. Further columns of the screen follow, without active or inactive calls. The list favours compounds with an active or inconclusive main result. The note in brackets gives the kind of curve behind each potency; many fits are weak.

Assay: qHTS Assay for Modulators of Lamin A Splicing
Details: HeLa LMNA splicing GFP/RFP minigene ratio, 48 h
Outline: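 S3 HeLa stable clones carrying a lamin A-EGFP splicing minigene plus DsRed2 were seeded at 600 cells/well in Opti-MEM with 2% FBS, pin-dosed and incubated 48 h at 37°C. Acumen cytometry (488 nm) gave the GFP/RFP total-intensity ratio.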

[1] = measured here: GFP splicing reporter channel
[2] = measured here: RFP viability control channel

| SMILES | AC50 [1] | AC50 [2] |
| --- | --- | --- |
| COc1ccccc1NC(=O)c1c(NCc2ccc(OC)c(OC)c2OC)sc2c1CCCC2 | 14.1 µM [falling, partial curve] | – |
| COc1ccc(NC(=O)c2cc3c(=O)n(Cc4ccco4)ccc3nc2C)cc1 | – | 14.1 µM [rising, single point] |
| COC(=O)C1=C(C)N(C)C(=O)/C1=C\c1ccco1 | – | 0.141 µM [falling, full curve] |
| CCN1CCN(CCCNC(=O)c2cnn(-c3ccccc3)c2C2CCN(C(=O)OC(C)(C)C)CC2)CC1 | 0.355 µM [falling, full curve, poor fit] | 0.282 µM [falling, full curve, poor fit] |
| COc1ccc(CC(=O)Nc2cccc(-c3cn4ccccc4n3)c2)cc1 | – | 35.5 µM [rising, single point] |
| CS(=O)(=O)N(CC(=O)N1CCCC1)Cc1ccccc1 | 2.24 µM [falling, partial curve, poor fit] | 35.5 µM [falling, single point] |
| COc1ccc(C(=O)/C=C/c2ccc(OC3CSC3)cc2)cc1OC | 3.16 µM [falling, partial curve] | 10 µM [falling, partial curve] |
| Cc1cc(C)c(S(=O)(=O)Nc2ccc3c(c2)CCC3)c(C)c1 | 35.5 µM [falling, single point] | 35.5 µM [falling, single point] |
| Cc1nnc(SCC(=O)N(CC(C)C)c2c(N)n(CC(C)C)c(=O)[nH]c2=O)n1-c1ccccc1 | – | 0.501 µM [falling, full curve, poor fit] |
| CN1CCN(c2cc3c(cc2F)c(=O)c(C(=O)O)cn3-c2ccc(F)cc2)CC1 | 0.398 µM [falling, full curve, poor fit] | 17.8 µM [rising, single point] |
| COc1cccc(C2C=C(c3ccc(C)c(C)c3)Nc3nnnn32)c1OC (stereo not given) | 8.91 µM [rising, partial curve, poor fit] | 11.2 µM [rising, partial curve, poor fit] |
| COc1ccc2cc3cc(C(=O)Nc4ccc5c(c4)OCO5)oc3nc2c1 | 31.6 µM [falling, single point] | 35.5 µM [falling, single point] |
| Cc1cccc2cc(C#N)c(SCC(=O)N3CC(=O)Nc4ccccc43)nc12 | 0.891 µM [falling, full curve] | 1.12 µM [falling, full curve] |
| Cc1ccc(Nc2ccc(C(N)=O)cc2[N+](=O)[O-])cc1 | – | 4.47 µM [rising, partial curve, poor fit] |
| Cc1nc2c(C(=O)NCc3ccccc3)c[nH]n2c(=O)c1Cc1ccccc1Cl | 7.94 µM [falling, partial curve, poor fit] | 12.6 µM [falling, partial curve, poor fit] |
| COc1cccc(C(=O)Nc2ccc(N3CCCC3)cc2)c1 | – | 35.5 µM [rising, single point] |
| Cc1ccc(NS(=O)(=O)c2cc(C(=O)N3CCc4ccccc4C3)ccc2Cl)cc1 | 17.8 µM [falling, single point] | 35.5 µM [falling, single point] |
| O=C(N/N=C/c1cccc([N+](=O)[O-])c1O)c1cccs1 | – | 28.2 µM [rising, single point] |
| Oc1ccc2c(c1)oc1cc(O)ccc12 | – | 12.6 µM [rising, single point] |
| Cc1ccc(-c2cc(N)n(-c3ccc(F)cc3)n2)cc1 | – | 0.00501 µM [falling, full curve, poor fit] |
| CCOC(=O)c1c(S(=O)(=O)N2CCCC(C(=O)Nc3cccc(Cl)c3)C2)c(C)n(C)c1C (stereo not given) | – | 28.2 µM [falling, partial curve] |
| O=c1c(-c2cc3ccccc3o2)[n+]([O-])c2ccccc2n1OCc1ccccn1 | – | 25.1 µM [falling, single point] |
| CCOC(=O)c1c(NC(=O)C(Sc2ccccc2)c2ccccc2)sc(C(=O)N(C)C)c1C (stereo not given) | – | 25.1 µM [rising, single point] |
| CCC(=C(c1ccc(OC)cc1)c1ccc(OC)cc1)c1cn(CC(O)CN(CCO)CCO)c2ccccc12 (stereo not given) | 15.8 µM [falling, single point] | 14.1 µM [falling, single point] |
| Cc1cccc(C(=O)Nc2nc(C)c(C(=O)Nc3ccc4c(c3)CCC4)s2)c1 | 22.4 µM [falling, partial curve] | 35.5 µM [falling, single point] |
| CC(C)n1nnc2c(=O)oc3ccccc3c21 | – | 4.47 µM [rising, partial curve, poor fit] |
| Cc1ccc(S(=O)(=O)Nc2ccc(Cl)cc2C(=O)c2ccc(F)cc2)cc1 | – | 35.5 µM [rising, single point] |
| CCOc1ccc(CNS(=O)(=O)c2cc3c(cc2C)NC(=O)CO3)cc1OC | 0.447 µM [rising, partial curve, poor fit] | 0.355 µM [rising, full curve, poor fit] |

| SMILES | AC50 [1] | AC50 [2] |
| --- | --- | --- |
| COc1ccc(-n2c(=O)c3ccccc3c3ccccc3c2=O)cc1 | – | 0.501 µM [rising, full curve, poor fit] |
| Cc1ccc(OCC(=O)Nc2nnc(SCc3cc(=O)c4ccccc4[nH]3)s2)cc1 | 0.251 µM [rising, partial curve] | – |
| CCCn1c(/C=N/Nc2nc3ccccc3[nH]2)nc2ccccc21 | – | 11.2 µM [rising, partial curve, poor fit] |
| O=C(O)c1[nH]c2ccccc2c1C=NCc1ccccc1Cl | 35.5 µM [falling, single point] | – |
| Cc1ccc(-c2nc3sc(CCNC(=O)c4ccc(Br)o4)c(C)n3n2)cc1 | 20 µM [falling, partial curve, poor fit] | 1 µM [falling, partial curve, poor fit] |
| CC(=O)N(CN1C(=O)c2ccccc2C1=O)c1ccc2c(c1)oc1ccccc12 | 1.26 µM [falling, full curve, poor fit] | – |
| CC(C)=CCC1C(=O)N(c2ccccc2)N(c2ccccc2)C1=O | – | 31.6 µM [falling, single point] |
| CCOc1ccc(C(=O)N2CCC(c3nc4ccccc4o3)CC2)cc1 | – | 39.8 µM [falling, partial curve, poor fit] |
| COC(=O)c1c(NC(=O)c2ccc(C)cc2)csc1C | – | 28.2 µM [falling, single point] |
| O=C(NCCc1csc(-c2ccccc2)n1)c1c(F)cccc1F | – | 0.00316 µM [falling, full curve, poor fit] |
| O=c1cc(-c2ccccc2Cl)oc2c([N+](=O)[O-])c(O)cc(O)c12 | 2.24 µM [rising, partial curve] | 3.98 µM [rising, partial curve] |
| O=C(C(=O)N1CCOCC1)c1c[nH]c2ccccc12 | – | 0.00355 µM [falling, full curve, poor fit] |
| CCCCNC(=S)N(C)/N=C/c1ccc(OCC(=O)Nc2c(C)cc(C)cc2C)c(OC)c1 | 7.08 µM [rising, full curve] | 11.2 µM [rising, partial curve] |
| COC(=O)c1c(-c2cccs2)csc1NC(=O)COc1ccc(C(C)(C)C)cc1 | 35.5 µM [rising, single point] | 20 µM [rising, single point] |
| COc1ccc(NC(=O)c2ccc(-c3ccccc3)cc2)cc1NS(=O)(=O)c1ccc(F)cc1 | – | 3.16 µM [rising, full curve] |
| CCN1CCCC1CNCc1ccccc1OCc1ccc(F)cc1 (stereo not given) | – | 35.5 µM [rising, single point] |
| CCOC(=O)C1(CCc2ccccc2)CCN(C(=O)Cc2nonc2C)CC1 | – | 0.00447 µM [falling, full curve] |
| Cc1cccnc1NCc1ccc(O)c2ncccc12 | – | 35.5 µM [rising, single point] |
| O=C(Nc1ccc([N+](=O)[O-])cc1)c1ccc(Cn2cc([N+](=O)[O-])cn2)cc1 | 1.12 µM [rising, partial curve, poor fit] | 5.01 µM [rising, partial curve, poor fit] |
| Cc1cccc(OCC(=O)N(Cc2cccs2)c2ccc(Cl)cc2)c1C | – | 11.2 µM [rising, partial curve, poor fit] |
| O=C(N/N=C/c1c[nH]c2ccccc12)C1CC1c1ccccc1 (stereo not given) | – | 20 µM [rising, single point] |
| Brc1ccc2ncnc(NCc3ccco3)c2c1 | – | 3.16 µM [rising, full curve] |
| CN1CCN(c2ncc3nc(-c4cccc(C#N)c4)c(=O)n(Cc4ccc(F)cc4)c3n2)CC1 | 20 µM [falling, partial curve] | 12.6 µM [falling, partial curve] |
| CC(C)C(=O)Nc1cc(S(=O)(=O)Nc2ccc(Cl)cc2)ccc1Cl | – | 4.47 µM [rising, partial curve] |
| Cc1cc(=S)cc(C)n1CCCn1ccnc1 | 39.8 µM [falling, partial curve, poor fit] | – |
| O=C(NNC(=O)c1ccc(Br)o1)c1ccc(NC(=O)c2ccccc2)cc1 | – | 6.31 µM [rising, single point] |
| O=c1[nH]c(Cn2nnc(-c3ccccc3)n2)nc2scc(-c3ccccc3)c12 | 11.2 µM [rising, partial curve, poor fit] | 12.6 µM [rising, single point] |

Full records, quoted from the list. Values in the order: AC50 [1] | AC50 [2]
`Cc1cc(=S)cc(C)n1CCCn1ccnc1` is listed as 39.8 µM [falling, partial curve, poor fit] | –
`O=C(O)c1[nH]c2ccccc2c1C=NCc1ccccc1Cl` is listed as 35.5 µM [falling, single point] | –
`CCOc1ccc(C(=O)N2CCC(c3nc4ccccc4o3)CC2)cc1` is listed as – | 39.8 µM [falling, partial curve, poor fit]
